From paper PMC10127607 come the findings set out here.

By UniProt entry, the sequences of proteins in these tests, tags left out.
UniProt O60942: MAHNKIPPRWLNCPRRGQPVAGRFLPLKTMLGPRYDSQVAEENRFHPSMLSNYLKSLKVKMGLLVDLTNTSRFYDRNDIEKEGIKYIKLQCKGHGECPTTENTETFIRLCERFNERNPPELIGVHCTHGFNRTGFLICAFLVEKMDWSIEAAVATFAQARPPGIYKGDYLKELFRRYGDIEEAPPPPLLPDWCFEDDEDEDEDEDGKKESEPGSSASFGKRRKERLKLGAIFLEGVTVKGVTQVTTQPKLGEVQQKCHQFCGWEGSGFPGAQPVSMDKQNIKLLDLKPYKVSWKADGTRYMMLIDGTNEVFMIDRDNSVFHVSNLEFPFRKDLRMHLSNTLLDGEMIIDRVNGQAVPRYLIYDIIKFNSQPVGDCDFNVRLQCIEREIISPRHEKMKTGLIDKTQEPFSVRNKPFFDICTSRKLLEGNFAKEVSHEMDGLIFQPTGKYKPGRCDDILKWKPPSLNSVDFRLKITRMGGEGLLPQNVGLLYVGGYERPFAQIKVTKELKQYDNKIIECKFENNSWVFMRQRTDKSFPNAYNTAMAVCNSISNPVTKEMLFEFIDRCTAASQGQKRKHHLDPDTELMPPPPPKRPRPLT

These are yes or no findings as the source states them, for the method shown. In cells and extracts the contact can be indirect. Some results given as binding are weak or reduced against the parent protein; the word gives no strength.

For the test, the target named is T1, DRAP1 (DR1-associated corepressor), endogenous (human (endogenous in THP-1)) (UniProt Q14919).
T1 sequence: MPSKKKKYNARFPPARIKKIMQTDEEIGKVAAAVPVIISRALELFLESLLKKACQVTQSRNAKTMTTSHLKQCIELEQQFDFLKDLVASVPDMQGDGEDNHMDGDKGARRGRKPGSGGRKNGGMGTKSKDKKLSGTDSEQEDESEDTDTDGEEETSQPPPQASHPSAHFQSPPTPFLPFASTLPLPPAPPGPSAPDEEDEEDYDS
The test is described as follows: co-IP; MCE1-HA-expressing THP-1 macrophages, mock-infected or infected with HIV-1 (SERINC5+/−), also with RPL35 and DRAP1 overexpressed or knocked out; IP with RPL35 or DRAP1 antibodies or of MCE1-HA, Western blot. For orientation: In western blotting, separated proteins are transferred to a membrane and probed.

Take “C-terminally HA-tagged MCE1 (mammalian capping enzyme) (from UniProt O60942 1-597)”: the binding entry was “binds”.
